The series relates to rats. Description: Neuromuscular impairment / roto-rod test. Conditions: intraperitoneal dose of 20 mg per kg diazepam alone. As for the experimental part:
Further tests may be conducted to evaluate the agonist/antagonist profile of a compound. The procedures or methods used to determine anticonflict (shock-induced suppressions of drinking test), antagonism of metrazole-induced convulsions and neuromuscular impairment (roto-rod studies) are published in Eur. J. Pharmacol. 78(3):323-333 (1980) and briefly discussed below. To determine the antagonist properties of a test compound, subjects are treated with test agent intraperitoneally or orally at selected intervals prior to or following treatment with a benzodiazepine agonist, and are then tested under the appropriate test conditions.
A roto-rod test (Rinnard and Car, J. Pharmacol. and Exp. Therap. 121:354 (1957)) which measures the rat's muscle tone and ability to perform coordinated locomotor tasks may be used to evaluate a test compound's antagonist properties. In the roto-rod test, rats are trained to maintain themselves for at least 1 min on a rotating rod (6 r.p.m.). Subjects are treated with a test compound and are retested for their ability to maintain themselves on the roto-rod at 30 and 60 min. post-drug administration. Subjects that fail to stay on the rod for a one-minute period are considered to be neuromuscularly impaired (ataxia) and the ED50 (that dose which would be expected to produce ataxia in 50% of the rats tested) is calculated. […]
(In general: In the rotarod test animals must keep their balance on a rotating rod.)

Structures are written as SMILES.

On to `CN1C(=O)CN=C(c2ccccc2)c2cc(Cl)ccc21` [diazepam], for which the “neuromuscular impairment (inability to remain on the roto-rod)” value was “significant neuromuscular impairment”.

The values above are taken from US4925844A, “Antagonizing the pharmacological effects of a benzodiazepine receptor agonist” (ICI Americas Inc., priority 1989, dated 1990).
